# According to article PMC4308083, “Cytokine-Induced Loss of Glucocorticoid Function: Effect of Kinase Inhibitors, Long-Acting β2-Adrenoceptor Agonist and Glucocorticoid Receptor Ligands” (PLoS ONE, 2015):
# Tested on: CDKN1C, DUSP1, RGS2 and TSC22D3 mRNA in BEAS-2B cells
# Assay: RT-PCR of glucocorticoid-inducible gene expression in BEAS-2B cells
smiles,measurement,value
COc1ccc(CC(C)NCC(O)c2ccc(O)c(NC=O)c2)cc1 (stereo not shown) [formoterol],Effect on dexamethasone-induced CDKN1C and RGS2 mRNA induction,significantly enhanced
